# How the values were obtained:
# [1] = in vitro; conditions: human, Caco-2
# [2] = MTT viability assay on SMI microtissues after drug exposure; conditions: human, SMI (small intestinal) microtissues
compound,measurement,setting,value
CC(C)NCC(O)COc1ccc(CC(N)=O)cc1 (stereo not shown) [Atenolol],"Papp at 2 h, 10 μM",[1],3 nm/s
same,"viability at 96 h, 1 µM",[2],108%
same,"viability at 96 h, 10 µM",[2],107%
same,"viability at 96 h, 100 µM",[2],102%

# Reference: article PMC6599640 (Pharmaceutical research, 2018)
